Data source: PubChem BioAssay AID652272 (Drosophila RNAi Screening Center, 2013)

- Test: 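Genes whose knock-down decreases or increases Hedgehog reporter output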 (primary screen)
- System: Drosophila clone 8 (Cl8) cells
- Reagent: long dsRNA against Drosophila genes
- Read-out: 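Firefly light from a Hedgehog-responsive ptc promoter reporter and Renilla reference light, both read on a plate reader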
- Scale: firefly Hh reporter signal: higher = more ptc reporter light; Renilla reference signal: higher = more Renilla control light
- Call rule: 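Hit when the z-score averaged over two replicates is under -2 or over +3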
- Calls: active = hit: reporter lowered or raised; inactive = not a hit
The deposit covers about 21,000 reagents; this is an unselected part of those with a known target gene and a result. Over the whole deposit, 503 (2.4%) are marked active. 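Raw plate light values, not normalised; calls rest on replicate z-scores that were not deposited; hits include reporter decreases as well as increases.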 Reagents against one gene are numbered here. A plus sign joins genes that one reagent is predicted to hit. Not given: the amount of reagent, the time to read-out.

Gene | dsRNA no. | firefly Hh reporter signal, replicate 1 | firefly Hh reporter signal, replicate 2 | firefly Hh reporter signal, replicate 3 | Renilla reference signal, replicate 1 | Renilla reference signal, replicate 2 | activity call
AOX4 | 1 | 77112 | 82192 | – | 2016 | 1908 | inactive
angel | 1 | 2.03e5 | 1.27e5 | – | 7197 | 5376 | inactive
CG34384 | 1 | 5.29e5 | 2.18e5 | 90416 | 4504 | 4832 | inactive
CG34384 | 2 | 2.70e5 | – | – | 5205 | – | inactive
CG34384 | 3 | 52497 | 97095 | – | 2225 | 2785 | inactive
CG34384 | 4 | 94875 | 1.30e5 | – | 3146 | 4226 | inactive
CG34384 | 5 | 80885 | 1.27e5 | – | 3008 | 3612 | inactive
lov | 1 | 1.10e5 | 83129 | – | 2027 | 7333 | inactive
l(3)neo43 | 1 | 90500 | 1.01e5 | – | 2268 | 2436 | inactive
Tango11 | 1 | 1.52e5 | 2.48e5 | – | 3635 | 10672 | inactive
Tango11 | 2 | 1.20e5 | 1.59e5 | – | 3200 | 7465 | inactive
CG4882 | 1 | 59788 | 48906 | – | 1274 | 4220 | inactive
CG15027 | 1 | 1.18e5 | 2.67e5 | – | 3953 | 9270 | inactive
Tg | 1 | 1.20e5 | 77156 | – | 3344 | 5216 | inactive
stan | 1 | 29272 | 47096 | – | 1136 | 2776 | active
stan | 2 | 93318 | 61927 | – | 2288 | 4883 | inactive
CG12730 | 1 | 94807 | 2.52e5 | – | 3360 | 10070 | inactive
CG31300 | 1 | 5.22e5 | 1.29e5 | – | 22808 | 3353 | inactive
PI31 | 1 | 73456 | 68593 | – | 3181 | 2743 | inactive
side | 1 | 2.05e5 | 5.23e5 | 1.80e5 | 6730 | 4474 | inactive
side | 2 | 1.56e5 | 98160 | – | 5738 | 2230 | inactive
side | 3 | 1.37e5 | 1.23e5 | – | 5269 | 2955 | inactive
side | 4 | 1.30e5 | 1.04e5 | – | 4983 | 2428 | inactive
side | 5 | 1.66e5 | 1.48e5 | – | 5737 | 3622 | inactive
jeb | 1 | 67491 | 53546 | – | 1264 | 3684 | inactive
jeb | 2 | 73239 | 58578 | – | 1040 | 3968 | inactive
CG43867 | 1 | 4.06e5 | 1.72e5 | – | 18896 | 3330 | inactive
CG43867 | 2 | 86185 | 1.65e5 | – | 3505 | 6043 | inactive
CG43867 | 3 | 80864 | 2.21e5 | – | 3273 | 7732 | inactive
CG43867 | 4 | 1.08e5 | 2.93e5 | – | 3573 | 12044 | inactive
CG43867 | 5 | 91589 | 1.63e5 | – | 3057 | 7194 | inactive
Mtl | 1 | 1.06e5 | 1.09e5 | – | 3394 | 3708 | inactive
Cln7 | 1 | 1.15e5 | 64272 | – | 4968 | 2935 | inactive
mle | 1 | 88608 | 68793 | – | 1754 | 4715 | inactive
CG34001 | 1 | 85845 | 2.57e5 | – | 2235 | 9943 | inactive
Coop | 1 | 1.38e5 | 72122 | – | 5476 | 1964 | inactive
CG5335 | 1 | 99395 | 63492 | – | 3792 | 2758 | inactive
CG4730 | 1 | 5.19e5 | 1.40e5 | – | 26625 | 4369 | inactive

Looked up above:
Value of side #4 under “firefly Hh reporter signal, replicate 2”: 1.04e5
Under “firefly Hh reporter signal, replicate 1”, angel reads 2.03e5
Under “Renilla reference signal, replicate 1”, lov has 2027
Under “firefly Hh reporter signal, replicate 2”, Coop shows 72122

Additional records:
Gene | dsRNA no. | firefly Hh reporter signal, replicate 1 | firefly Hh reporter signal, replicate 2 | firefly Hh reporter signal, replicate 3 | Renilla reference signal, replicate 1 | Renilla reference signal, replicate 2 | activity call
Coq7 + shf | 1 | 84539 | 1.99e5 | – | 3648 | 8372 | inactive
kis | 1 | 1.87e5 | 1.18e5 | – | 4120 | 3259 | inactive
kis | 2 | 1.69e5 | 1.02e5 | – | 3472 | 1868 | inactive
kis | 3 | 2.00e5 | 73642 | – | 5880 | 2352 | inactive
CG30395 | 1 | 1.39e5 | 2.52e5 | – | 3687 | 11541 | inactive
Alp5 | 1 | 1.13e5 | 1.01e5 | – | 4537 | 3876 | inactive
CG17121 | 1 | 5.62e5 | 1.11e5 | – | 30246 | 3289 | inactive
CG34188 | 1 | 1.41e5 | 2.90e5 | – | 8499 | 10264 | inactive
CG1504 | 1 | 42125 | 82936 | – | 1148 | 4902 | inactive
ND-B14 | 1 | 90396 | 35401 | – | 1558 | 1706 | inactive
CG34205 | 1 | 1.30e5 | 84549 | – | 3174 | 7612 | inactive
CG43902 | 1 | 1.47e5 | 3.44e5 | – | 4021 | 12518 | inactive
CG43902 | 2 | 59696 | 2.49e5 | – | 1734 | 7856 | inactive
ems | 1 | 1.01e5 | 66163 | – | 3672 | 2496 | inactive
CG13047 | 1 | 1.76e5 | – | – | 7008 | 4578 | inactive
CG30203 | 1 | 73073 | 47024 | – | 1905 | 3558 | inactive
CG9782 | 1 | 6.19e5 | 2.37e5 | – | 36210 | 5426 | inactive
CG9782 | 2 | 1.22e5 | 2.95e5 | – | 4523 | 11201 | inactive
CG43111 | 1 | 1.19e5 | 3.18e5 | – | 3492 | 13659 | inactive
